Measurements taken from the supplement of paper PMC11732987, “Enantioselective OTUD7B fragment discovery through chemoproteomics screening and high-throughput optimisation” (Communications Chemistry, 2025).
Some of the results follow. The data scatter; read single values as rough.

The chains behind the UniProt entries cited, without tags or fusion partners. Where a name states a change or a piece, a line headed by the entry shows the natural chain unless it says otherwise. Residues count along the entry.
UniProt Q9H9E3: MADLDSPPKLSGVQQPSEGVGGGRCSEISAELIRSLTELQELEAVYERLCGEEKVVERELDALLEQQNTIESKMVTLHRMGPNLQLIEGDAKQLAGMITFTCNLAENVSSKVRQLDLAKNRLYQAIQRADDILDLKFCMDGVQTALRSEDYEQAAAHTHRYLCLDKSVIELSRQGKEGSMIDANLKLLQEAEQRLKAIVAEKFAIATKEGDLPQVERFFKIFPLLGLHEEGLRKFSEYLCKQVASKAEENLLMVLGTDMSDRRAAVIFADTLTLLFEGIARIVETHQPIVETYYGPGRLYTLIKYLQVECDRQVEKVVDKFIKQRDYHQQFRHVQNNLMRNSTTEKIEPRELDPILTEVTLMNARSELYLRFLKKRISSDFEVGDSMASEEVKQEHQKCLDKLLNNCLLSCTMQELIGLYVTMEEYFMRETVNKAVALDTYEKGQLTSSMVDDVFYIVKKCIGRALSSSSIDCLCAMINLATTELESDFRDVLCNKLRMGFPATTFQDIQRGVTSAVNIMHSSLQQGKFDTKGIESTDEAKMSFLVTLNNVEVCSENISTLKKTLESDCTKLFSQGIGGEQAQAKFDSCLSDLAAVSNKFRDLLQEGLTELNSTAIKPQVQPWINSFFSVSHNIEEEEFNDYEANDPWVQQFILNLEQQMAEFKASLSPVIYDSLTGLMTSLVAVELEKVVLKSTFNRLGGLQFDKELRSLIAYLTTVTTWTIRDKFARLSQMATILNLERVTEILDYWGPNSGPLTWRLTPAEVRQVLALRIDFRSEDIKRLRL
UniProt P38432: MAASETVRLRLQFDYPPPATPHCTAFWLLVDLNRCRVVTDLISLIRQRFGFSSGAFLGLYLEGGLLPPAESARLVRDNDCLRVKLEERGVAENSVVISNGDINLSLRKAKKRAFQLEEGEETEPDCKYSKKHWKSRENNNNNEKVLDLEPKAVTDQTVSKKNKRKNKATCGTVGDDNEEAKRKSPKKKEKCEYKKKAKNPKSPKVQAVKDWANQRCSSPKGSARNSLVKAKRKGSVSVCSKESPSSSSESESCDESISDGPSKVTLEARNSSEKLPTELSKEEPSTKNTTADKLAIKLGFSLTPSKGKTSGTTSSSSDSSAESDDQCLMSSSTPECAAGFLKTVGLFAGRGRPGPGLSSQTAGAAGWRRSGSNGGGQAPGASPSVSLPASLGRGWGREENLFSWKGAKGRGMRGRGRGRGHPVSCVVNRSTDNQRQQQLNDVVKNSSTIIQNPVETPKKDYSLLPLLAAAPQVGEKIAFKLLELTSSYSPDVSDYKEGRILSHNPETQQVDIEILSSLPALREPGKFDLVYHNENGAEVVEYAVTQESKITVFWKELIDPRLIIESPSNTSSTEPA
UniProt Q9BXS0: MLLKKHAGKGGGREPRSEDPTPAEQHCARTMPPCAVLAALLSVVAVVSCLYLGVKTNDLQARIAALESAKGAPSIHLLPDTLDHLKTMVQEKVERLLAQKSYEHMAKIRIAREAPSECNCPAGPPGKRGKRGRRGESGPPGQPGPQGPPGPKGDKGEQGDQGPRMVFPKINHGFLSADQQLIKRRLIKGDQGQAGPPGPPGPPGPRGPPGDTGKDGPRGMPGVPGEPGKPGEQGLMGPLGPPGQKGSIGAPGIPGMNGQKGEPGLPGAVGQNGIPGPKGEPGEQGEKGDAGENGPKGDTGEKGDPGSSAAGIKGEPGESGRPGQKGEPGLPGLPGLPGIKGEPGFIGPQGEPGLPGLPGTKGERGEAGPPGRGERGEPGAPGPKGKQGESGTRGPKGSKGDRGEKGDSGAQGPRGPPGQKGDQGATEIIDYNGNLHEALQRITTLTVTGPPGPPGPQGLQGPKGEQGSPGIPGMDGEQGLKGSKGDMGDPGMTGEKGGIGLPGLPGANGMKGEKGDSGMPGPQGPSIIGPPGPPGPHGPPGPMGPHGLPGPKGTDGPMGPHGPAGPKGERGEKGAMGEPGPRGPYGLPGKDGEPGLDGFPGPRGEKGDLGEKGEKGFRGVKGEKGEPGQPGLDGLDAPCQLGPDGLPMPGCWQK
UniProt Q8N5K1: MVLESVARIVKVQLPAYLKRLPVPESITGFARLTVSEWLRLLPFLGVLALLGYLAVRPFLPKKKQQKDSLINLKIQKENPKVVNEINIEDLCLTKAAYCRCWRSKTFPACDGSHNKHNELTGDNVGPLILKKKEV
UniProt O75976: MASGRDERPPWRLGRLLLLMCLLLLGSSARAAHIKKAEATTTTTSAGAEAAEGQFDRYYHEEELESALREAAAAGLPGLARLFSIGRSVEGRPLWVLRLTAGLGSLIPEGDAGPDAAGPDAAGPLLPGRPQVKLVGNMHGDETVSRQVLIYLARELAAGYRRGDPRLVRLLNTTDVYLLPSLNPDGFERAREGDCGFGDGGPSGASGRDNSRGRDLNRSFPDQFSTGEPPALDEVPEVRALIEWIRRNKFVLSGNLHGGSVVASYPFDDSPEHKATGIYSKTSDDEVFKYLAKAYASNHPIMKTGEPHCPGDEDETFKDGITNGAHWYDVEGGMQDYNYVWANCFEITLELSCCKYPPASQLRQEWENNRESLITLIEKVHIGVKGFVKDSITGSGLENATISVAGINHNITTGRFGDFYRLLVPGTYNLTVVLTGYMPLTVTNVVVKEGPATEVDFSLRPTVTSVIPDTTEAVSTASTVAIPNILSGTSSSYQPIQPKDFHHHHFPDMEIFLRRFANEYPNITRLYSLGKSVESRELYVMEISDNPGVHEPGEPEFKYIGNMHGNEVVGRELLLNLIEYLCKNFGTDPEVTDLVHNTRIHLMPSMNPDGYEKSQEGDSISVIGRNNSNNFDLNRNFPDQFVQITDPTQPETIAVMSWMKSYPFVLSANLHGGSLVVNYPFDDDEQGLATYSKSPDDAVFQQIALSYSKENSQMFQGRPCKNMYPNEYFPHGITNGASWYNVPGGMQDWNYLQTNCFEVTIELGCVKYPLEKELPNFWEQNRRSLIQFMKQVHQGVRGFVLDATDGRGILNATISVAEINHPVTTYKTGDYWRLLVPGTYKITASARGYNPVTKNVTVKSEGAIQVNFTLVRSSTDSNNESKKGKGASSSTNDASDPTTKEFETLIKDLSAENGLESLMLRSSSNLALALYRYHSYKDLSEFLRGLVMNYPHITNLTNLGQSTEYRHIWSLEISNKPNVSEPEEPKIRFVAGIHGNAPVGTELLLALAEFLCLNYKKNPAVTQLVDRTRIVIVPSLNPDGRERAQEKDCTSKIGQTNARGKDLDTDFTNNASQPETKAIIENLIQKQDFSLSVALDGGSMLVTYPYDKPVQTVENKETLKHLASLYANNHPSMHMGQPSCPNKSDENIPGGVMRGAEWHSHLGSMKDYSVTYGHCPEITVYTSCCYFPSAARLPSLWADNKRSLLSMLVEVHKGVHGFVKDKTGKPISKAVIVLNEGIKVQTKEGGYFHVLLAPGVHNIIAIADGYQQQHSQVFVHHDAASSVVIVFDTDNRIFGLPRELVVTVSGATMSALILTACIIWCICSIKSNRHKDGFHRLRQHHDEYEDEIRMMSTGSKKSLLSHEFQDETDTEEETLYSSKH
UniProt P53675: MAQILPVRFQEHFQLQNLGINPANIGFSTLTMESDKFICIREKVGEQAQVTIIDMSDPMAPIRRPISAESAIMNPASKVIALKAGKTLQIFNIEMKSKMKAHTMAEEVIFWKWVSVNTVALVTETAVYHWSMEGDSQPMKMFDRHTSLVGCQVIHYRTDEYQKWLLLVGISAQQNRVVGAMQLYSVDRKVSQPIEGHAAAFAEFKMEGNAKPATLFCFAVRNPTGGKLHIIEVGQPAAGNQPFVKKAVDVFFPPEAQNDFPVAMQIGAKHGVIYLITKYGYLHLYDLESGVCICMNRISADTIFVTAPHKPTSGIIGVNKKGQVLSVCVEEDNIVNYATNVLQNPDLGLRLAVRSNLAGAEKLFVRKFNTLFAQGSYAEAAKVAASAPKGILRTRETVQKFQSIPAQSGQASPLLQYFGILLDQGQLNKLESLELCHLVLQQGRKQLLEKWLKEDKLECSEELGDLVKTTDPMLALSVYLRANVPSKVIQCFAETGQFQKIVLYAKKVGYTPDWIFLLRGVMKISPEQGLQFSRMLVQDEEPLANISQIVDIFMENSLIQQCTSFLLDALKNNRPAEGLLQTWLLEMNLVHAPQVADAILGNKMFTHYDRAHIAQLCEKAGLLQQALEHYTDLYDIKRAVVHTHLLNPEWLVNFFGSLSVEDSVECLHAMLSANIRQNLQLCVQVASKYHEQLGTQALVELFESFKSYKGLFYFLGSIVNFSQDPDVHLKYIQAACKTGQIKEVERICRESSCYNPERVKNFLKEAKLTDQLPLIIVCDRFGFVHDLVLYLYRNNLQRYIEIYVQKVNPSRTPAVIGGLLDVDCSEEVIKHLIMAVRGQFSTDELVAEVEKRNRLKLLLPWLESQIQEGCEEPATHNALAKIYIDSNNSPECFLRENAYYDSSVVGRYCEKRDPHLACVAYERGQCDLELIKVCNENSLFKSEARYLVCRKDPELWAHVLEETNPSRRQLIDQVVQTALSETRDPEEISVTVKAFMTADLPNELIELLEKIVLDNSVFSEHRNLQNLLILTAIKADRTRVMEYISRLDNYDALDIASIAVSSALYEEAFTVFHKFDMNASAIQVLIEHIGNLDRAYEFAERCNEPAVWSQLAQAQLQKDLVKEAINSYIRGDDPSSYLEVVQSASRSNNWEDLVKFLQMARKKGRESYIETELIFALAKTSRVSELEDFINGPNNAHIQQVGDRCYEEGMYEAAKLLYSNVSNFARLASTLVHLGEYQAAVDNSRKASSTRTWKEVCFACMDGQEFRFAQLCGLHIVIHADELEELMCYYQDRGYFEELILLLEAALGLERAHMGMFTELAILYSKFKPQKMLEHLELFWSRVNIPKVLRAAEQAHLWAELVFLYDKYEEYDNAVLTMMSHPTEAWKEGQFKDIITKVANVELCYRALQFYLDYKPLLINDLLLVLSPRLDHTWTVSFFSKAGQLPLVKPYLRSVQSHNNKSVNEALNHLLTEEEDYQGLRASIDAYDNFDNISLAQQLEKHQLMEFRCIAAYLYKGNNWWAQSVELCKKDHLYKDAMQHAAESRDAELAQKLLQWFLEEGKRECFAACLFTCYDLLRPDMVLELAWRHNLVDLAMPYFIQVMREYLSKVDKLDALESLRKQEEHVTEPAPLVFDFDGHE
UniProt P09497: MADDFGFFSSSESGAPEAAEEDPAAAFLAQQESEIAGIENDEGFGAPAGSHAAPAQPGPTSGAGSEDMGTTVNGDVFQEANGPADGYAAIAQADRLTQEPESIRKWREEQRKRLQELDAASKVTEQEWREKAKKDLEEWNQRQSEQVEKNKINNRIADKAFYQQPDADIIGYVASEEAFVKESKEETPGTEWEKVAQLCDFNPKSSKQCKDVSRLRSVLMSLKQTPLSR
UniProt Q6PJW8: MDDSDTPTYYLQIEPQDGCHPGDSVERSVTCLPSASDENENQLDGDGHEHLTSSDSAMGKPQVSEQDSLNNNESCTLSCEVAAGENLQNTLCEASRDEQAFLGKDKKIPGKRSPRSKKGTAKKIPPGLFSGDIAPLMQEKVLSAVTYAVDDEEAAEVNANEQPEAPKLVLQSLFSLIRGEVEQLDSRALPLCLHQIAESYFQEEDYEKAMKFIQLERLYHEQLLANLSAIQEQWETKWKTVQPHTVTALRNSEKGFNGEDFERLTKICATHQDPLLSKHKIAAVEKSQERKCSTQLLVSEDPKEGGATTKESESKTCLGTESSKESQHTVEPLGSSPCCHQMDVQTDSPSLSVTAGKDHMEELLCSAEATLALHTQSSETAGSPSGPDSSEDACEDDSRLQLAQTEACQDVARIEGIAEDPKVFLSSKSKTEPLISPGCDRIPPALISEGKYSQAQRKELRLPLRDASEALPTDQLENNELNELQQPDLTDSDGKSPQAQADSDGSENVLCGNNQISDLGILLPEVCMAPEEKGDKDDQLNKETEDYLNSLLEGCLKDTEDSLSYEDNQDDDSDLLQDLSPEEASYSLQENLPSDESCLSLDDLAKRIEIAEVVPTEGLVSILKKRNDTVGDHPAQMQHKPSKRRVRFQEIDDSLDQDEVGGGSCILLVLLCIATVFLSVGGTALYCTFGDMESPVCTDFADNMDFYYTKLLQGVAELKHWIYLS
UniProt Q9NRP2: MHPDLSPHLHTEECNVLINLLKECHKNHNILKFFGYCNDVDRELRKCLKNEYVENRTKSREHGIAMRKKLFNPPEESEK
UniProt Q9Y696, 228-249: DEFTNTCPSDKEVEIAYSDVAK
UniProt Q7Z460, 1406-1425: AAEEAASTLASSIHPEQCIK
UniProt P24386, 186-211: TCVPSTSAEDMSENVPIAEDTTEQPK
UniProt Q9GZQ3: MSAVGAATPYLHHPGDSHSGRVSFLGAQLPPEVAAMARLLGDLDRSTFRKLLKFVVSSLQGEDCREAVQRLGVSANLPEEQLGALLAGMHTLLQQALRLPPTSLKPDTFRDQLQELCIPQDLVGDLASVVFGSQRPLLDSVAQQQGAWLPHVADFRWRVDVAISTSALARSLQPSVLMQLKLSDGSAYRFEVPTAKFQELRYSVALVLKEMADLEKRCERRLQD

How the values were obtained:
[1] = compound: ClCC(=O)N[C@@H]1CCCc2ccccc12; assay: log2 mean competition ratio of IA-DTB cysteine labelling (DMSO/compound) (log2 ratio); higher = stronger cysteine engagement by compound; conditions: treatment time: 4 h, cell line lysate: HEK293T
Experimental: (§1)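 IA-DTB competitive cysteine chemoproteomics in HEK293T RIPA lysate. Lysates were treated with compound 29 or 30 at 50 or 200 µM for 4 h, then IA-DTB (500 µM, 1 h), trypsin-digested, NeutrAvidin-enriched and analysed by diaPASEF. Competition ratio = intensity DMSO / intensity compound (n=4 treated, n=64 DMSO); binding: mean log2 CR ≥ 1 and p ≤ 0.05 plus QC filters. Target is the cysteine site.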

[2] = compound: ClCC(=O)N[C@H]1CCCc2ccccc12; assay: as above; conditions: treatment time: 4 h, cell line lysate: HEK293T
Experimental: as §1

Row | Target | log2 mean competition ratio ([1]; 50 µM) | log2 mean competition ratio ([1]; 200 µM) | log2 mean competition ratio ([2]; 50 µM) | log2 mean competition ratio ([2]; 200 µM)
1 | COG4 C589 (UniProt Q9H9E3) | -0.00394 | -0.0527 | -0.374 | -0.16
2 | COIL C170 (UniProt P38432) | 0.149 | -0.144 | 0.0311 | 0.00803
3 | COL25A1 C27 (UniProt Q9BXS0) | -0.144 | 0.318 | -0.104 | 0.328
4 | CRACD C860 | 0.168 | -0.0882 | -0.244 | 0.182
5 | CISD2 C92 (UniProt Q8N5K1) | 0.0452 | -0.214 | -0.195 | -0.117
6 | CPD C720 (UniProt O75976) | 0.108 | 0.276 | 0.224 | 0.219
7 | CLTCL1 C892 (UniProt P53675) | -0.0152 | -0.0573 | 0.111 | 0.378
8 | CLTB C199 (UniProt P09497) | 0.0824 | -0.129 | 0.119 | 0.13
9 | CNST C439 (UniProt Q6PJW8) | -0.0561 | 0.0692 | 0.259 | 0.0124
10 | COPG2 C420 (UniProt Q9UBF2) | -0.0528 | -0.0351 | -0.329 | 0.00418
11 | CMC2 C37 (UniProt Q9NRP2) | -0.0187 | -0.077 | -0.169 | 0.146
12 | CLIC4 C234 (UniProt Q9Y696) | -0.024 | -0.358 | 0.372 | -0.421
13 | CLASP1 C1423 (UniProt Q7Z460) | -0.358 | 0.109 | 0.193 | 0.071
14 | CHM C187 (UniProt P24386) | -0.139 | -0.211 | -0.981 | 0.0172
15 | CLUH C899 | 0.0362 | -0.022 | -0.174 | 0.0694
16 | COMMD5 C64 (UniProt Q9GZQ3) | 0.0981 | -0.105 | 0.22 | -0.0546

Exported with tabs: entries from further up
Row	Target	log2 mean competition ratio ([1]; 50 µM)	log2 mean competition ratio ([1]; 200 µM)	log2 mean competition ratio ([2]; 50 µM)	log2 mean competition ratio ([2]; 200 µM)
4	CRACD C860	0.168	-0.0882	-0.244	0.182
5	CISD2 C92 (UniProt Q8N5K1)	0.0452	-0.214	-0.195	-0.117
